Data reported in patent US20110287023A1.
These are yes or no findings as the source states them, for the method shown. Some entries that bind do so weakly or less than the wild type. One block for each substance: values may come before it.

By UniProt entry, the sequences of proteins in these tests, tags left out. Residues count along the entry.
UniProt Q62151, residues 24-342: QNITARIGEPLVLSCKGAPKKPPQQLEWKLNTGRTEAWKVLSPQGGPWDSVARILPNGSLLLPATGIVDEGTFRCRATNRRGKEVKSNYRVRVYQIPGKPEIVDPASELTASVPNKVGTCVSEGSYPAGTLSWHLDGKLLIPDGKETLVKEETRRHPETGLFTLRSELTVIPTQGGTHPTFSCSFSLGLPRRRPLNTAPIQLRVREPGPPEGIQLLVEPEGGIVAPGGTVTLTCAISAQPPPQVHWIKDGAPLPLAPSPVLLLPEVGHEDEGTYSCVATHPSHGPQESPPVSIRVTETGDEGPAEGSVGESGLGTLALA
UniProt P63159: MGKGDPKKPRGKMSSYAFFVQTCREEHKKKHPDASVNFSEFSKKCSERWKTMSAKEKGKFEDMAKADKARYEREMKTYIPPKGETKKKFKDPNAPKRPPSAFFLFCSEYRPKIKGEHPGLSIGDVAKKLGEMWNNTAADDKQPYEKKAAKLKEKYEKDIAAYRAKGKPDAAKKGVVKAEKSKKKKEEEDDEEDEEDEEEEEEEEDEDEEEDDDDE
UniProt P10103, residues 2-215: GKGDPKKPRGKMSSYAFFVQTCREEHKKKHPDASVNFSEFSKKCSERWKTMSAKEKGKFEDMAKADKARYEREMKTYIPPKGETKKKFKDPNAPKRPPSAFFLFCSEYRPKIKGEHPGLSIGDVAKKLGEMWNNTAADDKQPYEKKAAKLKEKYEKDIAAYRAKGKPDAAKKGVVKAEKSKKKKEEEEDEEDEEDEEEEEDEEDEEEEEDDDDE
UniProt Q15109, residues 24-344: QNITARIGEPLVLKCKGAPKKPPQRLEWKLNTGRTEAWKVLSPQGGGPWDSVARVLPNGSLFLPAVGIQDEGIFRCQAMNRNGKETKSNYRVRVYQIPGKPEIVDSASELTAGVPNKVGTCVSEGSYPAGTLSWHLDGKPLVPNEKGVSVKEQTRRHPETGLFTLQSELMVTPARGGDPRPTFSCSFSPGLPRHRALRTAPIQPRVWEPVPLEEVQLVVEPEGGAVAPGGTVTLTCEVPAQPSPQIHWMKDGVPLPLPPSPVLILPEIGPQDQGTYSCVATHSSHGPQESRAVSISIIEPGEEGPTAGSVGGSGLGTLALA

Legend:
[1] = biological target: mouse RAGE/Fc fusion protein (mouse) (UniProt Q62151); test: ELISA on RAGE-Fc, FIG. 35
[2] = biological target: mouse RAGE/Fc fusion protein (mouse) (UniProt Q62151); test: ELISA (right panel): RAGE-Fc immobilized, HMGB1 titrated without CpG-A
[3] = biological target: mouse RAGE/Fc fusion protein (mouse) (UniProt Q62151); test: ELISA
[4] = biological target: mouse RAGE/Fc fusion protein (mouse) (UniProt Q62151); test: ELISA on immobilized RAGE/Fc
[5] = biological target: mouse RAGE/Fc fusion protein (mouse) (UniProt Q62151); test: ELISA on immobilized RAGE/Fc, biotin CpG-A detected, FIG. 35
[6] = biological target: mouse RAGE/Fc fusion protein (mouse) (UniProt Q62151); test: ELISA (right panel): RAGE-Fc immobilized, HMGB1 titrated in the presence of 0.3 µM CpG-A
[7] = biological target: mouse RAGE/Fc fusion protein (mouse) (UniProt Q62151); test: ELISA (right panel): RAGE-Fc immobilized, HMGB1 titrated in the presence of 0.03 µM CpG-A
[8] = biological target: mouse RAGE/Fc fusion protein (mouse) (UniProt Q62151); test: ELISA (right panel): RAGE-Fc immobilized, HMGB1 titrated in the presence of 0.003 µM CpG-A
[9] = biological target: mouse RAGE/Fc fusion protein (mouse) (UniProt Q62151); test: ELISA (left panel): RAGE/Fc immobilized ('Insoluble'), soluble complex of HMGB1 with biotin-labelled CpG titrated, detected by the biotin on CpG
[10] = biological target: recombinant rat HMGB-1 labelled with europium (rat) (UniProt P63159); test: competition: 2 nM europium-labelled HMGB-1 binding to THP-1 cells in the presence of the titrated inhibitor, fluorescence (cps)

binding [1]: binds
binding [2]: binds
Substance: HMG1 purified from calf (bovine) thymus (from UniProt P10103 2-215)

binding [3]: binds
binding [4]: binds
binding [5]: binds
binding [6]: binds
binding [7]: binds
binding [8]: binds
binding [9]: binds
Substance: complex of thymus HMGB1 with CpG-A DNA (from UniProt P10103 2-215)

binding [10]: binds
Substance: human RAGE-Fc fusion protein (from UniProt Q15109 24-344)
